The record followed here is PubChem BioAssay AID2685 (National Center for Advancing Translational Sciences (NCATS), 2010).

For orientation: AC50 means the midpoint of the concentration-response curve, whichever way the signal moves. The low end stands for greater potency, the high end for weaker potency.

The list shows a part of the results. The main result of the screen is listed elsewhere. These columns were measured beside it and carry no call. The list favours compounds with an active or inconclusive main result. Words in brackets tell the shape of the fitted curve; partial curves, single points and poor fits give uncertain potencies.

The test in a line: qHTS Assay for Lipid Storage Modulators in Drosophila S3 Cells.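 On cell number change: cells counted by Cell Tracker Red CMTPX staining in the red channel.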 The following applies: BODIPY lipid droplet fluorescence, 18-24 h; for cell number change: measured here: cell count max response, cells fed with added oleic acid. A digest of the protocol: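 Drosophila S3 cells got compounds at several concentrations plus oleic acid (400 uM solution). Laser-scanning cytometry with 488 nm excitation read lipid droplets at 500-530 nm and cells at 575-640 nm. Percent activity was relative to 20 uM Triacsin C.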
In general terms: In qHTS, concentration-response curves come from the screen itself.

The mark [1] stands for this setting: measured here: cell number channel AC50, cells fed with added oleic acid.
The mark [2] stands for this setting: measured here: lipid fluorescence (Fed channel) AC50, cells fed with added oleic acid.

As to `CN1CCN(c2ncnc3c2cnn3-c2ccc(Cl)cc2)CC1`, the cell number change is -1.01%.

With `NCCCC[C@H](NC(=O)C1CCNCC1)c1nnc([C@@H](N)Cc2ccc(O)cc2)o1`, the cell number change was -10.9%. The AC50 under setting [1] was 0.651 µM [falling, partial curve, poor fit].

For `Cc1sc2nc(SCC(=O)N(CCO)CCO)n(C3CCCCC3)c(=O)c2c1C`, the cell number change was determined as 2.44%. Further, the AC50 under setting [2] is 29.1 µM [falling, single point].

In the case of `Cc1ccc(NC(=O)CSc2nc(=O)n(Cc3ccncc3)c3c2CCC3)c(C)c1`, the cell number change came out at 8.72%. For the same compound, under setting [2], the concentration at half-maximal activity (AC50) is 29.1 µM [rising, single point].

Take `COC(=O)c1cc(C#N)c(SCc2ccccc2)nc1C`: the cell number change was determined as 42.8%. Also, the AC50 under setting [1] is 2.06 µM [rising, full curve]. The AC50 under setting [2] was 7.31 µM [rising, partial curve].

For `CN1C(=O)Cc2cc(S(=O)(=O)NCc3c(F)cccc3Cl)ccc21`, the cell number change is 4.35%.

Turning to `CCCCc1cc(=O)oc2cc(C)cc(OCC(=O)Nc3cccnc3)c12`, the cell number change was 14.9%.

With `CCCC(=O)N1CCN(c2nnc(-c3ccccc3)c3ccccc23)CC1`, the cell number change came to 10.9%. The AC50 under setting [2] is 0.116 µM [falling, full curve, poor fit].

In the case of `CC1(C)N=C(SCC(=O)Nc2ccc(Cl)cc2)C(c2ccccc2)=N1`, the cell number change stood at 42.1%. Besides, under setting [1], the AC50 was 6.51 µM [rising, full curve]. For the same compound, the AC50 under setting [2] is 14.6 µM [rising, partial curve].

Consider `COCCNc1nnc(SCC(=O)NNC(=O)c2ccccc2)s1`, for which the cell number change was 24.8%. Moreover, under setting [2], the AC50 was 0.651 µM [falling, partial curve].

Turning to `COc1cc(C)c(C(C)C)cc1S(=O)(=O)N1CCN(C)CC1`, the cell number change is -1.12%. Moreover, the AC50 under setting [2] is 5.8 µM [falling, partial curve].

With `Cc1ccccc1NC(=O)Cn1c(=O)n(C)c2ccccc21`, the cell number change came out at 25.7%. Moreover, the AC50 under setting [2] was 0.164 µM [rising, full curve].

Consider `O=C(O)/C=C/C(=O)NC1CCCCC1`, for which the cell number change is -2.98%.

`Cc1ccc(-c2nnn(CC(=O)N(c3cnc4ccccc4c3)C(C(=O)NC3CCCC3)c3ccncc3)n2)o1` (stereo not drawn): the cell number change is 0.406%. Further, the AC50 under setting [1] is 2.59 µM [rising, single point]. The AC50 under setting [2] was 4.11 µM [rising, single point].

Regarding `CS(=O)(=O)Nc1ccc(C(=O)NCC2CCCO2)cc1` (stereo not drawn), the cell number change turned out to be 5.06%. Under setting [2], the concentration at half-maximal activity (AC50) is 0.92 µM [falling, full curve, poor fit].

With `CCOC(=O)C1=C(CC)Nc2ccccc2N/C1=N\S(=O)(=O)c1ccccc1F`, the cell number change was -7.1%. In addition, the AC50 under setting [2] is 2.06 µM [rising, partial curve, poor fit].

On to `Cn1c(SCC(=O)c2ccc3c(c2)NC(=O)CO3)nc2ccccc21`, for which the cell number change was -4.46%. Further, the AC50 under setting [2] is 0.116 µM [rising, partial curve, poor fit].

As for `Cc1noc(C)c1COc1ccc(C(=O)N2CCN(S(=O)(=O)c3ccccc3)CC2)cc1`, the cell number change worked out at 8.23%. Besides, the concentration at half-maximal activity (AC50) under setting [2] is 6.51 µM [rising, single point].

As to `O=C(O)c1c(F)c(F)c(F)c(F)c1-c1ccc(Cl)cc1`, the cell number change is -44.1%. The AC50 under setting [1] was 29.1 µM [falling, single point]. Moreover, under setting [2], the AC50 was 23.1 µM [falling, partial curve].

Take `Cc1nc(SCC(=O)N(CC(C)C)C2CCS(=O)(=O)C2)c(C#N)c(C)c1C` (stereo not drawn): the cell number change came to 55.8%. For the same compound, the AC50 under setting [1] was 18.4 µM [rising, single point].

With `CN(CC(=O)Nc1ccc(F)cc1)C(=O)COC(=O)CNC(=O)c1sc2ccccc2c1Cl`, the cell number change is -19.2%. Moreover, under setting [1], the AC50 was 1.84 µM [falling, partial curve, poor fit].

On to `S=C(NCC(c1cccnc1)N1CCOCC1)NC1CCCCC1` (stereo not drawn), for which the cell number change is -12.9%. The AC50 under setting [1] was 6.51 µM [falling, single point].

Consider `COc1ccccc1NC(=S)NC(=O)CC(C)C`, for which the cell number change is -12.7%. The concentration at half-maximal activity (AC50) under setting [2] is 29.1 µM [falling, single point].

Take `CCOC(=O)c1cccc(NC(=O)CS(=O)(=O)Cc2nc(-c3cccc(OC)c3)oc2C)c1`: the AC50 under setting [1] is 2.91 µM [rising, single point] and the AC50 under setting [2] is 6.51 µM [rising, single point].

Take `CCCNc1c(N)n(-c2ccccc2)c(=O)[nH]c1=O`: the cell number change is -11.3%. Under setting [1], the AC50 is 5.17 µM [falling, single point]. Besides, the AC50 under setting [2] is 0.00517 µM [rising, full curve, poor fit].

For the compound `Nc1nc(NCc2ccco2)nc(N2CCCC2)c1[N+](=O)[O-]`, the cell number change amounted to 12.7%. In addition, the AC50 under setting [1] was 1.46 µM [rising, partial curve, poor fit]. Further, under setting [2], the AC50 was 2.06 µM [rising, partial curve, poor fit].

Regarding `Cc1cc(C(=O)NCc2ccco2)sc1C`, the cell number change came to 0.907%. In addition, the AC50 under setting [2] was 0.00461 µM [falling, full curve, poor fit].

As for `COc1cc2c(cc1OC)/C(=C/C(=O)c1ccccc1F)NCC2`, the AC50 under setting [2] is 2.91 µM [rising, single point].

For the compound `O=C(NCc1ccccn1)C(=O)NCC1OCCN1S(=O)(=O)c1ccc(Br)cc1` (stereo not drawn), the cell number change is 29.7%.

With `Cc1ccc(-n2c(SCC(=O)N3CCOCC3)nnc2-c2ccncc2)cc1`, under setting [2], the half-maximal activity concentration (AC50) is 0.82 µM [falling, full curve].

Regarding `O=C(COC(=O)C1CCN(C(=O)Nc2ccccc2)CC1)NCC(F)(F)F`, the cell number change turned out to be 2.26%. Besides, the AC50 under setting [1] was 0.82 µM [falling, full curve]. Moreover, the AC50 under setting [2] is 0.82 µM [falling, full curve].

On to `CCN(CC(=O)Nc1c(F)cccc1F)C(=O)CN1C(=O)NC2(CCCC2)C1=O`, for which the cell number change was -38.1%. In addition, under setting [1], the AC50 was 3.66 µM [falling, full curve]. The AC50 under setting [2] is 4.11 µM [falling, full curve].

On to `O=C(c1ccc(-c2ccccc2)cc1)N1CCN(c2ccccc2F)CC1`, for which the cell number change is -0.73%. In addition, the AC50 under setting [1] was 0.00411 µM [rising, full curve, poor fit].

Consider `Cc1cccc(Cn2c(=O)n(Cc3ccco3)c(=O)c3ccccc32)c1`, for which the AC50 under setting [2] was 11.6 µM [rising, partial curve].

Turning to `CCCn1c(C)cc(C(=O)CSc2nc3ccccc3c(=O)n2Cc2ccco2)c1C`, the cell number change stood at 133%. Further, under setting [1], the AC50 is 29.1 µM [rising, single point].

Turning to `O=C(O)CSc1nnc(-c2ccc3c(c2)OCO3)o1`, the cell number change is 33.5%. In addition, the half-maximal activity concentration (AC50) under setting [1] is 16.4 µM [rising, single point].

Take `COc1ccc(N2CCN(C(=O)COC(=O)CCOc3cc(C)ccc3C)CC2)cc1`: the cell number change is -30.8%. Also, the concentration at half-maximal activity (AC50) under setting [2] is 0.0651 µM [falling, full curve].

As for `Cc1ccc(S(=O)(=O)Nc2ccc(S(=O)(=O)N3CCOCC3)cc2)cc1[N+](=O)[O-]`, the cell number change is -6.67%.

Turning to `Cc1ccccc1OCC(O)Cn1c(=N)n(CCN2CCOCC2)c2ccccc21` (stereo not drawn), the cell number change is -24.1%. For the same compound, the concentration at half-maximal activity (AC50) under setting [2] was 0.146 µM [falling, full curve, poor fit].

`Cc1ccc(OCC(=O)c2cc(C)n(-c3cc(C)on3)c2C)c([N+](=O)[O-])n1`: the cell number change was -50%. Under setting [1], the AC50 is 2.31 µM [rising, partial curve].

On to `CCN1CCN(C(=S)Nc2ccc(Cl)cc2Cl)CC1`, for which the cell number change was -100%. Besides, under setting [1], the AC50 was 25.9 µM [falling, partial curve, poor fit].

For `CCOc1ccc(NC(=O)CN(C)C(=O)CCN2C(=O)C3CC=CCC3C2=O)cc1OCC` (stereo not drawn), the cell number change is -16.1%. Under setting [1], the AC50 was 0.00461 µM [falling, full curve, poor fit]. Further, the AC50 under setting [2] is 0.00517 µM [falling, full curve, poor fit].

On to `CCOC(=O)c1sc(Nc2ccc(C)cc2C)nc1C`, for which the cell number change is -21.1%. For the same compound, under setting [2], the AC50 was 2.06 µM [rising, partial curve].

For `O=C(N/N=C1/CC2C=CCC12)c1ccc(Br)o1` (stereo not drawn), the cell number change came to 10.9%. Also, the concentration at half-maximal activity (AC50) under setting [2] is 0.206 µM [rising, full curve, poor fit].

Turning to `CCCCCCCC(=O)Nc1cc(C(=O)NCCC)ccc1N1CCC2(CC1)CC(c1cccc(Br)c1)=NO2`, the cell number change was -3.56%. The AC50 under setting [1] was 0.0058 µM [falling, full curve, poor fit]. For the same compound, under setting [2], the AC50 is 0.00517 µM [falling, full curve, poor fit].

With `O=S(=O)(NC1CCCCC1N1CCC(O)CC1)c1ccc(Cl)cc1` (stereo not drawn), the cell number change was -6.94%. The concentration at half-maximal activity (AC50) under setting [2] is 29.1 µM [falling, single point].

For `COC(=O)C(C(C)=O)C1=C/C(=N\S(=O)(=O)c2ccc(C)cc2)c2ccccc2C1=O` (stereo not drawn), the cell number change was 102%. The half-maximal activity concentration (AC50) under setting [1] was 23.1 µM [rising, partial curve]. Also, the AC50 under setting [2] was 0.0517 µM [rising, full curve, poor fit].

For `CCOc1ccc(S(=O)(=O)N2CCOCC2)cc1NC(=O)CN1C(=O)NC2(CCCC2)C1=O`, the cell number change is 13.7%. Under setting [2], the concentration at half-maximal activity (AC50) is 13 µM [rising, single point].

On to `CCC(NC(=O)c1ccc2nc(Cc3ccc(OC)cc3)oc2c1)c1ccncc1` (stereo not drawn), for which, under setting [2], the AC50 was 3.66 µM [falling, partial curve].

As to `O=S(=O)(Nc1cccc2ccccc12)c1ccccc1F`, the cell number change came to 15.1%.

For `CCOc1ccccc1N(C(=O)Cn1nnnc1-c1ccc(C)o1)C(CC)C(=O)NC(C)(C)C` (stereo not drawn), the cell number change was -27.5%. Also, the AC50 under setting [2] was 29.1 µM [falling, single point].

As to `CC[C@H](C)/C=C(C)/C=C/C1=CC2=CC(=O)[C@]3(C)OC(=O)[C@@H](C(C)=O)[C@@H]3C2=CO1`, the cell number change is -8.67%. The AC50 under setting [2] is 16.4 µM [falling, single point].

For the compound `Cc1ccc(S(=O)(=O)CCSc2cccc(C(=O)O)c2)cc1`, under setting [2], the AC50 was 6.51 µM [rising, single point].

As to `Cc1cc(F)c(F)c(C(=O)NC2CC2)c1Cl`, the AC50 under setting [2] was 1.3 µM [falling, full curve].

With `CCOC(=O)c1ccc(N(C(=O)CNC(=O)c2ccco2)C(C(=O)NCC2CCCO2)c2ccc(OC)c(OC)c2)cc1` (stereo not drawn), the cell number change was -13.5%.

With `CC(Oc1cccc(Cl)c1)C(=O)Nc1ccc(S(=O)(=O)N(C)C2CCN(C)CC2)cc1` (stereo not drawn), the cell number change turned out to be 6.43%. The AC50 under setting [1] was 0.517 µM [falling, full curve].

In the case of `Cc1cccc(C)c1NC(=O)CCCSc1nc2ccccc2s1`, the cell number change was 3.35%. Besides, the AC50 under setting [2] was 0.82 µM [rising, partial curve, poor fit].

In the case of `COC(=O)c1ccc(C(=O)OC)c(NC(=O)N2c3ccccc3Sc3ccccc32)c1`, the cell number change is -52.6%. Moreover, under setting [1], the concentration at half-maximal activity (AC50) was 23.1 µM [falling, partial curve, poor fit].
